# Measurements published in PubChem BioAssay AID1487 (National Center for Advancing Translational Sciences (NCATS), 2009).
# The list shows a part of the results. Shown are side measurements of this screen, not its main read-out; they come without a call. Compounds called inactive in the main read-out are mostly missing here. Potencies come from curve fits of mixed quality, noted in brackets.
# Experiment: qHTS Assay for Modulators of Lamin A Splicing
# Conditions: HeLa LMNA splicing GFP/RFP minigene ratio, 48 h
# Summary of the method: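 S3 HeLa stable clones carrying a lamin A-EGFP splicing minigene plus DsRed2 were seeded at 600 cells/well in Opti-MEM with 2% FBS, pin-dosed and incubated 48 h at 37°C. Acumen cytometry (488 nm) gave the GFP/RFP total-intensity ratio.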
# [1] = measured here: GFP splicing reporter channel
# [2] = measured here: RFP viability control channel
Structure (SMILES),AC50 [1],AC50 [2]
O=C(/C=C/c1ccc(-c2ccccc2[N+](=O)[O-])o1)c1ccc(F)cc1,"14.1 µM [falling, single point]","25.1 µM [falling, single point]"
Cc1ccc(NC(=O)CSc2n[nH]c(-c3ccco3)n2)c(C)c1,–,"0.0178 µM [falling, full curve, poor fit]"
Cc1nc(SCC(=O)c2ccc(F)cc2)n[nH]1,"6.31 µM [rising, single point]",–
CC(=O)NC1(C(F)(F)F)NC(=O)N(c2ccc(F)cc2)C1=O (configuration not stated),"6.31 µM [rising, single point]",–
CCN(CC)c1ccc(NC(=O)c2sc3nc(-c4ccccc4)cn3c2C)cc1,"0.0501 µM [falling, full curve]","0.0355 µM [falling, full curve]"
CCCCN(C(=O)CSc1nnc(-c2ccc(OC)cc2)n1CC)c1c(N)n(Cc2ccccc2)c(=O)[nH]c1=O,–,"0.0794 µM [rising, partial curve, poor fit]"
CC(=O)c1cccc(NC(=O)c2ccc(-c3ccccc3[N+](=O)[O-])o2)c1,"6.31 µM [rising, single point]","22.4 µM [rising, single point]"
Cn1cc(SCC(=O)Nc2nc3ccccc3s2)c2ccccc21,"35.5 µM [falling, single point]",–
Cc1ccc(Cl)cc1NC(=O)Cn1cc(S(=O)(=O)Cc2ccccc2Cl)c2ccccc21,–,"35.5 µM [falling, partial curve, poor fit]"
O=C(COC(=O)C1(c2ccc(F)cc2)CCCC1)N1CCOCC1,–,"6.31 µM [falling, partial curve]"
O=C(/C(=C/O)N=Nc1ccccc1Cl)c1ccccc1,"20 µM [falling, partial curve]","12.6 µM [falling, partial curve]"
Fc1cccc(CSc2nc(NCCc3ccccc3)c3ccccc3n2)c1,"11.2 µM [falling, single point]","14.1 µM [falling, single point]"
Nc1nonc1C(=O)NCCNCc1cc(Br)ccc1OCc1ccccc1F,–,"25.1 µM [rising, partial curve]"
CCC(=O)Nc1nc2c(OC)ccc(C)c2s1,–,"11.2 µM [rising, partial curve, poor fit]"
CC1(C)OC2CC(=O)OC[C@@]23C1CC(=O)[C@]1(C)C3CC[C@@]2(C)C(c3ccoc3)OC(=O)C3O[C@@]321 (some centres not stated),"0.00355 µM [falling, full curve, poor fit]",–
CCOC(=O)N1CCN(C(=O)c2ccc3c(=O)n(Cc4ccc(Cl)cc4)c(=S)[nH]c3c2)CC1,"14.1 µM [rising, single point]","22.4 µM [rising, single point]"
CCn1c(COc2ccccc2C)nnc1SCC(=O)N1CCN(c2ccccc2)CC1,"10 µM [rising, partial curve]","12.6 µM [rising, partial curve]"
COCCn1c(SCCCC(=O)c2ccc(Br)cc2)nnc1-c1ccncc1,–,"7.94 µM [rising, partial curve]"

Structure (SMILES),AC50 [1],AC50 [2]
CCn1cc(C(=O)O)c(=O)c2cc(F)c(N3CCN(S(=O)(=O)c4ccc(NC(=O)OC)cc4)CC3)cc21,–,"11.2 µM [rising, partial curve]"
CCC(C)NC(=S)N(CCc1ccccc1)Cc1cc2cc(OC)c(OC)cc2[nH]c1=O (configuration not stated),"12.6 µM [rising, single point]","11.2 µM [rising, partial curve]"
O=C(NCc1ccco1)/C(=C\c1ccco1)NC(=O)c1cccs1,–,"17.8 µM [rising, partial curve, poor fit]"
COc1ccc(NC(=O)CN2CCc3ccccc3C2)cc1S(=O)(=O)N1CCOCC1,"35.5 µM [rising, single point]","25.1 µM [rising, single point]"
Cc1cc(N2CCN(c3ccccc3)CC2)nc(-c2ccccc2)n1,"11.2 µM [rising, single point]","17.8 µM [rising, single point]"
CCc1ccc(-c2ccc3nnc(SCC(=O)Nc4cccc(C(C)=O)c4)n3n2)cc1,–,"6.31 µM [falling, partial curve, poor fit]"
COc1ccc(CCNC(=O)CN2C(=O)COc3ccccc32)cc1OC,–,"8.91 µM [falling, partial curve]"
COC(=O)c1cc(C(=O)NCCCN2CCOCC2)cc([N+](=O)[O-])c1,–,"5.62 µM [rising, single point]"
Cc1ccccc1-c1nn2c(=O)cc(CN3CCN(C(=O)c4ccccc4Br)CC3)nc2s1,–,"0.891 µM [falling, full curve, poor fit]"
COc1ccc(/C=N/NC(=O)c2ccc(CSc3nc(C)cc(C)n3)cc2)c(OC)c1OC,–,"10 µM [rising, partial curve]"
Cc1cccc2c1N(CCCOc1ccc(C(C)(C)C)cc1)C(=O)C2=O,"15.8 µM [falling, single point]",–
N=C(N)SCc1ccccn1,"2 µM [falling, partial curve, poor fit]","1.41 µM [falling, partial curve, poor fit]"
Nc1nc(SCC(=O)O)[nH]c(=O)c1NC(=O)c1ccccc1F,"0.0158 µM [rising, full curve, poor fit]","0.01 µM [rising, full curve, poor fit]"
CCCn1c(SCC(=O)N2CCCCC2)nnc1C(C)C,–,"0.0251 µM [falling, partial curve, poor fit]"
O=C(Oc1ccnc2cc(Cl)ccc12)N1CCCCCC1,–,"0.282 µM [rising, full curve, poor fit]"
CS(=O)(=O)N(CC(=O)NCCSC1CCCCC1)c1ccccc1,–,"0.398 µM [rising, full curve, poor fit]"
Cc1ccc(Nc2ncnc3c2nc2n3CCCC2)c(Br)c1,"22.4 µM [falling, single point]",–

# A few values from the results shown.
# `CCC(C)NC(=S)N(CCc1ccccc1)Cc1cc2cc(OC)c(OC)cc2[nH]c1=O` (configuration not stated) – AC50 [1]: 12.6 µM [rising, single point]
# `CS(=O)(=O)N(CC(=O)NCCSC1CCCCC1)c1ccccc1` – AC50 [2]: 0.398 µM [rising, full curve, poor fit]
